Results deposited as PubChem BioAssay AID493246 (Drosophila RNAi Screening Center, 2011)

Screen: 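Identify essential fly genes by loss of cell viability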 (primary screen)
System: Drosophila Kc and S2R+ cells
Reagents: long dsRNA against Drosophila genes
Detection: 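Raw, unnormalised count of remaining cells in each well; per-plate z-scores of cell number underlie the calls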
Direction: Kc cell number and S2R+ cell number: higher = more cells remaining
Rule for the call: 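Active when the per-plate z-score of cell number is 3 or more in the direction of fewer cells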
The deposit covers about 21,000 reagents; this is a random part of those that have a named target and a result. In the full data, 429 (2%) got an active call. 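Values are raw and not normalised between plates; calls rest on per-plate z-scores that were not deposited.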 A number with no mark means an inactive call. The numbers tell different reagents against one gene apart. Names joined by + are all predicted targets of the reagent. Reagent sequences are not shown. The record does not give: the amount of reagent, the time to read-out.

| gene knocked down | reagent | Kc cell number, rep 1 | Kc cell number, rep 2 | S2R+ cell number, rep 1 | S2R+ cell number, rep 2 |
| --- | --- | --- | --- | --- | --- |
| sns | 1 | 2.85e5 (active) | 4.49e5 | 6.47e5 | 7.97e5 |
| sns | 2 | 1.80e6 | 1.77e6 | 1.26e6 | 1.51e6 |
| sns | 3 | 1.52e6 | 1.59e6 | 1.25e6 | 1.34e6 |
| sns | 4 | 1.44e6 | 1.49e6 | 1.21e6 | 1.29e6 |
| sns | 5 | 1.39e6 | 1.46e6 | 8.45e5 | 9.84e5 |
| nmd | 1 | 1.50e6 | 1.59e6 | 1.29e6 | 1.25e6 |
| scyl | 1 | 1.33e6 | 1.25e6 | 1.32e6 | 1.36e6 |
| MFS1 | 1 | 1.46e6 | 1.52e6 | 1.33e6 | 1.37e6 |
| par-6 | 1 | 1.31e6 | 1.36e6 | 1.02e6 | 1.13e6 |
| CG2082 | 1 | 1.49e6 | 1.55e6 | 1.19e6 | 1.27e6 |
| Tsp42A | 1 | 1.57e6 | 1.59e6 | 1.34e6 | 1.41e6 |
| CG33330 (retired record) | 1 | 1.21e6 (active) | 1.24e6 | 6.19e5 | 7.27e5 |
| CG33330 (retired record) | 2 | 1.67e6 | 1.75e6 | 1.39e6 | 1.43e6 |
| CG11883 | 1 | 1.40e6 | 1.42e6 | 1.20e6 | 1.21e6 |
| CG14618 | 1 | 1.48e6 | 1.55e6 | 1.06e6 | 1.20e6 |
| CG5969 | 1 | 1.52e6 | 1.64e6 | 1.18e6 | 1.23e6 |
| AspRS | 1 | 1.42e6 | 1.43e6 | 1.26e6 | 1.32e6 |
| Cnb | 1 | 1.38e6 | 1.44e6 | 1.21e6 | 1.28e6 |
| Tob | 1 | 5.63e5 | – | 1.01e6 | – |
| Cdc5 | 1 | 1.28e6 | 1.38e6 | 1.03e6 | 1.12e6 |
| bru1 | 1 | 8.70e5 (active) | 8.85e5 | 5.16e5 | 6.14e5 |
| bru1 | 2 | 1.66e6 | 1.68e6 | 8.82e5 | 1.02e6 |
| bru1 | 3 | 1.45e6 | 1.53e6 | 1.03e6 | 1.19e6 |
| bru1 | 4 | 1.54e6 | 1.58e6 | 1.08e6 | 1.20e6 |
| bru1 | 5 | 1.21e6 | 1.29e6 | 9.95e5 | 1.12e6 |
| CG32454 | 1 | 1.45e6 | 1.47e6 | 1.23e6 | 1.30e6 |
| CG14200 | 1 | 1.10e6 (active) | 1.14e6 | 5.52e5 | 6.53e5 |
| RpL36 | 1 | 9.97e5 (active) | 1.06e6 | 5.81e5 | 6.90e5 |
| CG17344 | 1 | 1.78e6 | 1.85e6 | 1.15e6 | 2.27e5 |
| CG31296 | 1 | 1.38e6 | 1.63e6 | 1.08e6 | 1.19e6 |
| CG15262 | 1 | 1.65e6 | 1.68e6 | 1.34e6 | 1.43e6 |
| sut4 | 1 | 1.31e6 | 1.35e6 | 1.13e6 | 1.27e6 |
| Dr | 1 | 1.38e6 | 1.49e6 | 1.02e6 | 1.13e6 |
| CG43163 | 1 | 1.41e6 | 1.35e6 | 1.12e6 | 1.17e6 |
| CG43163 | 2 | 1.38e6 | 1.36e6 | 1.10e6 | 1.14e6 |
| CG13124 | 1 | 1.27e6 | 1.30e6 | 1.08e6 | 1.20e6 |
| Sec31 | 1 | 1.44e6 | 1.45e6 | 1.19e6 | 1.29e6 |
| alien | 1 | 1.12e6 | 1.25e6 | 8.70e5 | 9.41e5 |
| Coq5 | 1 | 1.59e6 | 1.56e6 | 1.06e6 | 1.16e6 |
| Polr1D + DCTN6-p27 | 1 | 1.54e6 | 1.57e6 | 1.22e6 | 3.19e5 |
| CG14615 | 1 | 1.45e6 | 1.55e6 | 9.63e5 | 1.03e6 |
| CG5535 | 1 | 1.56e6 | 1.54e6 | 1.43e6 | 1.42e6 |
| CG6951 | 1 | 1.71e6 | 1.77e6 | 1.34e6 | 1.50e6 |
| Nup160 + RfC38 | 1 | 1.26e6 | 1.33e6 | 1.09e6 | 1.13e6 |
| CG6209 | 1 | 1.51e6 | 1.52e6 | 1.27e6 | 1.37e6 |
| CG7236 | 1 | 1.62e6 | 1.72e6 | 1.04e6 | 1.18e6 |
| Mpcp2 | 1 | 1.42e6 | 1.46e6 | 1.11e6 | 1.28e6 |
| CG13793 | 1 | 1.65e6 | 1.67e6 | 1.14e6 | 1.33e6 |
| CG8746 | 1 | 1.67e6 | 1.73e6 | 1.40e6 | 1.59e6 |
| GstE6 | 1 | 1.56e6 | 1.56e6 | 1.10e6 | 1.26e6 |
| Pur-alpha | 1 | 5.65e5 | – | 8.14e5 | – |
| Pen | 1 | 1.28e6 | 1.36e6 | 1.25e6 | 1.26e6 |
| Lasp | 1 | 1.30e6 | 1.46e6 | 1.15e6 | 1.31e6 |
| msb1l | 1 | 1.46e6 | 1.60e6 | 1.35e6 | 1.38e6 |
| CG31406 | 1 | 1.33e6 | 1.52e6 | 1.00e6 | 1.24e6 |
| CG13375 | 1 | 1.50e6 | 1.53e6 | 1.06e6 | 1.24e6 |
| CG13063 | 1 | 1.57e6 | 1.53e6 | 1.18e6 | 1.34e6 |
| CG15625 | 1 | 1.46e6 | 1.33e6 | 1.08e6 | 1.24e6 |
| CG33459 | 1 | 4.97e5 | – | 7.38e5 | – |

Individual results from the entries so far:
msb1l, Kc cell number, rep 1 → 1.46e6
nmd, Kc cell number, rep 2 = 1.59e6
CG8746, Kc cell number, rep 1 = 1.67e6
Result of CG33330 (retired record) #1 under “S2R+ cell number, rep 1”: 6.19e5 (active)
CG15262, Kc cell number, rep 2 = 1.68e6
